This is an account of results in paper doi:10.1101/2025.09.11.675346.

Amino acid sequences for entries named in this document (tags omitted).
UniProt Q9BXW9: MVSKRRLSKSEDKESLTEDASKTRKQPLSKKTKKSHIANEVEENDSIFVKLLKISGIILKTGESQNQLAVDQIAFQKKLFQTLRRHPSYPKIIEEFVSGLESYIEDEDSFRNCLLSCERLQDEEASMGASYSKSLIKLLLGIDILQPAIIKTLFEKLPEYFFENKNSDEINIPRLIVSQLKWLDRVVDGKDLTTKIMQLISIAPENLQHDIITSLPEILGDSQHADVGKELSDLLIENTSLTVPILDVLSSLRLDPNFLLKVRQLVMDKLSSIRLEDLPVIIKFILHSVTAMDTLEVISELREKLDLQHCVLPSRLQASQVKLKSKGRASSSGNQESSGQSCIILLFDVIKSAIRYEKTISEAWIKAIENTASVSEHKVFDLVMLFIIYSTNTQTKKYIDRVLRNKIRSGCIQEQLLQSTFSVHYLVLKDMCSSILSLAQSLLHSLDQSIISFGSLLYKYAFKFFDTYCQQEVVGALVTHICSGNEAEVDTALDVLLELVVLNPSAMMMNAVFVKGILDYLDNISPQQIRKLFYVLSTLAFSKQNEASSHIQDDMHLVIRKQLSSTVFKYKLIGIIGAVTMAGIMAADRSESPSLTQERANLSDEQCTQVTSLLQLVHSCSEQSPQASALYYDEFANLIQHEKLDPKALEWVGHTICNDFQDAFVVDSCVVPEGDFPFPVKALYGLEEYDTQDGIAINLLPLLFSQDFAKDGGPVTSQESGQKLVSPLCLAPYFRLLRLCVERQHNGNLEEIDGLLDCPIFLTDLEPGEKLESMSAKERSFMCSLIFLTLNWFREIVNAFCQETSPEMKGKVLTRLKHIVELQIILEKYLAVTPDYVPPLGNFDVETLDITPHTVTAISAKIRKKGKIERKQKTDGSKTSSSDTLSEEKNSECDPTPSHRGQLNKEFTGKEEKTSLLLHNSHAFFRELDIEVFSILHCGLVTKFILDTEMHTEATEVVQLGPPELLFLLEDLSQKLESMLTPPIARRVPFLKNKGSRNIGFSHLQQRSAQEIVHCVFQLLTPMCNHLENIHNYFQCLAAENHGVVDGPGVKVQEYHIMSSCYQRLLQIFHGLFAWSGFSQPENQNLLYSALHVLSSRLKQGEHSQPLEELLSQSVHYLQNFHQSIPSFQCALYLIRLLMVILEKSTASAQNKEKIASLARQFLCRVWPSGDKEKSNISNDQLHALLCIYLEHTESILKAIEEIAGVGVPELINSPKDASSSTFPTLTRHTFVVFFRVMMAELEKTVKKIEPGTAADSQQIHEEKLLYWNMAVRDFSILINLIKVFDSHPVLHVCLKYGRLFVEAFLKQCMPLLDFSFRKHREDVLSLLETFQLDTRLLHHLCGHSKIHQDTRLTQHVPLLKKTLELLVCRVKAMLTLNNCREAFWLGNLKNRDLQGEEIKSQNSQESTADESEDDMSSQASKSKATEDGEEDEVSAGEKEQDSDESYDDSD
UniProt P06748: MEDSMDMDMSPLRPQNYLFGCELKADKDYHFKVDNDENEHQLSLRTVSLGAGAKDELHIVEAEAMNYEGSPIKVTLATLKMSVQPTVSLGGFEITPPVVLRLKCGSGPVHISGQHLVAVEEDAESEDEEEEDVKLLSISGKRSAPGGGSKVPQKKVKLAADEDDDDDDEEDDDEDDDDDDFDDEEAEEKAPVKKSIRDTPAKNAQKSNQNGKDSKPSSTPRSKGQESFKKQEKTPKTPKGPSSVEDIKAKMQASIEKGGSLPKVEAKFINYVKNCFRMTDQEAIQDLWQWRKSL

The experiment concerns the target FANCD2 (human (endogenous in HSC93)) (UniProt Q9BXW9). The experiment in a line: co-IP.

No constants are given. Whether binding was seen depends on the method and setting. In cells and extracts the contact can be indirect. Some results given as binding are weak or reduced against the parent protein; the word gives no strength.

For the molecule NPM1 (from UniProt P06748 1-294), the binding entry was “binds”.

B1: FANCG (protein, UniProt O15287 1-622)
chain: MSRQTTSVGSSCLDLWREKNDRLVRQAKVAQNSGLTLRRQQLAQDALEGLRGLLHSLQGLPAAVPVLPLELTVTCNFIILRASLAQGFTEDQAQDIQRSLERVLETQEQQGPRLEQGLRELWDSVLRASCLLPELLSALHRLVGLQAALWLSADRLGDLALLLETLNGSQSGASKDLLLLLKTWSPPAEELDAPLTLQDAQGLKDVLLTAFAYRQGLQELITGNPDKALSSLHEAASGLCPRPVLVQVYTALGSCHRKMGNPQRALLYLVAALKEGSAWGPPLLEASRLYQQLGDTTAELESLELLVEALNVPCSSKAPQFLIEVELLLPPPDLASPLHCGTQSQTKHILASRCLQTGRAGDAAEHYLDLLALLLDSSEPRFSPPPSPPGPCMPEVFLEAAVALIQAGRAQDALTLCEELLSRTSSLLPKMSRLWEDARKGTKELPYCPLWVSATHLLQGQAWVQLGAQKVAISEFSRCLELLFRATPEEKEQGAAFNCEQGCKSDAALQQLRAAALISRGLEWVASGQDTKALQDFLLSVQMCPGNRDTYFHLLQTLKRLDRRDEATALWWRLEAQTKGSHEDALWSLPLYLESYLSWIRPSDRDAFLEEFRTSLPKSCDL
In the case of B1, the binding result is on record as “no binding”.
